Laboratory results from PubChem BioAssay AID2685 (National Center for Advancing Translational Sciences (NCATS), 2010).
Hit rate of the full screen: of about 320,000 compounds, about 2,100 (0.66%) were called active. Calls follow the shape of the dose curve; as a rule, active = well fitted inhibition curve with a large enough effect in the signal ratio, with a control signal flat (not every such curve was filed as active); inconclusive = small, poorly fitted or top-dose-only effect, or effect the other way, or a change in a side signal; inactive = flat fitted curve, though single readings scatter; the % refers to the signal ratio. Inconclusive means that the source gave no clear call. Potencies of inconclusive entries are doubtful fits and often do not repeat.

Experiment: qHTS Assay for Lipid Storage Modulators in Drosophila S3 Cells
Settings: BODIPY lipid droplet fluorescence, 18-24 h, cells fed with added oleic acid; lipid storage change, negative = inhibition: at 46.1 µM (top of the series) unless noted
Outline: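 Laser-scanning cytometry quantifies lipid droplet accumulation (500–530 nm total intensity; droplet/cell object ratio) in oleic acid-fed (400 uM added) Drosophila S3 cells treated with a concentration series. 20 uM Triacsin C defined 100% inhibition.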
% is scaled to controls: 0 for no effect and ±100 for the full control effect; potency is read from the fitted curve at half-maximal effect.

Lipid storage change, negative = inhibition, inconclusive:
O=C(NCCc1ccc(Cl)cc1)c1ccc(Cn2c(=O)[nH]c3ccccc3c2=O)cc1 8.06%, CCC(=O)c1cn(CC(=O)Nc2cc(C)ccc2C)c2ccccc12 0.714%, COc1cc(/C=C(/C#N)c2nc3ccccc3[nH]2)ccc1OCC(=O)Nc1ccccc1C 84.1%, CC(=O)Nc1nc2c(c3c1c(=O)oc1ccccc13)CCCCC2 -31.9%, CSc1ccc(CN(C)C(=O)c2cc(S(=O)(=O)NCc3ccccc3)ccc2C)cc1 24.4%, N#Cc1cn(CC(=O)NCC2CCCO2)c2ccccc12 (stereo unspecified) -13.1%, Cc1cccc(C)c1NC(=O)Cn1cnc2c(=O)n(C)c(=O)n(C)c21 16.2%, CC(C)=CCC(C)(C)C1OCCN1C(=O)Nc1ccccc1 (stereo unspecified) 72.8%, COc1ccc(C2=NC(CO)(CO)CO2)cc1 -22.2% [at 9.22 µM], COc1ccccc1-c1cc2nc(C)c(CCC(=O)NCc3ccc(F)cc3)c(C)n2n1 -9.51%, Cc1ccc(C(=O)NCC(=O)OCC(=O)NCC(F)(F)F)cc1 12.7%, CCOC(=O)CSc1nc2c(cnn2-c2ccc(F)cc2)c(=O)[nH]1 22.3%, CN(C)C(=S)SCCn1c(N)nc(N(C)C)nc1=O -17.4%, COc1cc(-c2nc(-c3ccccc3)c(-c3cc([N+](=O)[O-])ccc3C)[nH]2)cc(OC)c1OC -13.2%

Potency, inconclusive:
CS(=O)(=O)c1nc(S(=O)(=O)c2ccc(Cl)cc2)c(N2CCOCC2)s1 29100 nM [falling, single point], COc1ccc(NC(=O)COC(=O)CCCC2=NS(=O)(=O)c3ccccc3N2)cc1Cl 29100 nM [activator, single point], O=C(NC(=S)Nc1ccccc1Br)c1cccnc1 206 nM [activator, full curve, poor fit], O=C(c1ccc(Br)s1)N1CCN(S(=O)(=O)c2ccccc2)CC1 580 nM [activator, single point], CC1(C)CC(CCNS(=O)(=O)c2ccccc2)(c2ccccc2)CCO1 (stereo unspecified) 1840 nM [falling, partial curve, poor fit], CNS(=O)(=O)c1cc(OC)ccc1OC 411 nM [falling, partial curve, poor fit], CCc1ccc(CN(C)C(=O)c2cc(S(=O)(=O)N3CCN(CC)CC3)ccc2Cl)cc1 6510 nM [activator, single point]
